The list shows a part of the results. Most entries show no effect beyond the scatter of the controls.

Sequences of proteins named here, by UniProt entry; tags and fusion partners are left off. A change or cut given only in a name is not applied to a line headed by its entry.
UniProt P17035: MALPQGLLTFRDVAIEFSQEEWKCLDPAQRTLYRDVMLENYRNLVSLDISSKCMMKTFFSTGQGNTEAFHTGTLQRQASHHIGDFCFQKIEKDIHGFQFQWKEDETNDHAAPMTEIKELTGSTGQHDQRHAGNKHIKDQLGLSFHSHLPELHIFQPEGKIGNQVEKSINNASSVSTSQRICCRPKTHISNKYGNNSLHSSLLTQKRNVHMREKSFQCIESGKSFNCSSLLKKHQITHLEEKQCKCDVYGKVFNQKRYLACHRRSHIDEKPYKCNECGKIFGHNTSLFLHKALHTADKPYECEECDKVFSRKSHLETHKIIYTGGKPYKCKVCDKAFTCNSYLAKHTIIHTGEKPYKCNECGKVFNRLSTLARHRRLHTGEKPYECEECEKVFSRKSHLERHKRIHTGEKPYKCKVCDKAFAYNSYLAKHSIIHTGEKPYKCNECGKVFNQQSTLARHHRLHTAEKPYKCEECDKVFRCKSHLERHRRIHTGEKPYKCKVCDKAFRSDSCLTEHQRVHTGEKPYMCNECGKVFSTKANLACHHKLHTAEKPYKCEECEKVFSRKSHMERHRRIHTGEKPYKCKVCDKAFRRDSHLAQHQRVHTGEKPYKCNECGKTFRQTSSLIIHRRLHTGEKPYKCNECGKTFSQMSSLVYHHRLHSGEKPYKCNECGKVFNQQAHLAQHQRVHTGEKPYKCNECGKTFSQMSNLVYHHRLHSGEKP
UniProt P22033: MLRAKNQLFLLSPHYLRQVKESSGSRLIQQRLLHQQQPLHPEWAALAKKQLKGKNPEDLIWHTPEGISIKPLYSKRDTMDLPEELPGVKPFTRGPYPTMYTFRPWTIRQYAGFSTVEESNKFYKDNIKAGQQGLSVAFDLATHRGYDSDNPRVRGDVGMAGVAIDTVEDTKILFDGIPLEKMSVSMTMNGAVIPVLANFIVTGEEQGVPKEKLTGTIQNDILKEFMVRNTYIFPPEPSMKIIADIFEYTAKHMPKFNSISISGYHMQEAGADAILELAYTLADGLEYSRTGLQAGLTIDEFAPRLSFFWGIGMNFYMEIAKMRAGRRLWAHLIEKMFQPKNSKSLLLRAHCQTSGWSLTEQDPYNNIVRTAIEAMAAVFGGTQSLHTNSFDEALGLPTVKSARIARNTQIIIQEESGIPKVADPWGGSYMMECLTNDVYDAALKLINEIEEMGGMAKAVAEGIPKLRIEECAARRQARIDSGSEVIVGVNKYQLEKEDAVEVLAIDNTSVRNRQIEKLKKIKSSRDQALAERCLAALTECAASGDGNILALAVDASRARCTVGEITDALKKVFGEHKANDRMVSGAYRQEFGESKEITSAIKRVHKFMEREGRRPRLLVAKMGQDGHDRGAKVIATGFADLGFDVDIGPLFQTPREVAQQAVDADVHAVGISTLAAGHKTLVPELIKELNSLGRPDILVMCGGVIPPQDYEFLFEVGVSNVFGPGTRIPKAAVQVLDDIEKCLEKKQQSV
UniProt P18858, whole entry: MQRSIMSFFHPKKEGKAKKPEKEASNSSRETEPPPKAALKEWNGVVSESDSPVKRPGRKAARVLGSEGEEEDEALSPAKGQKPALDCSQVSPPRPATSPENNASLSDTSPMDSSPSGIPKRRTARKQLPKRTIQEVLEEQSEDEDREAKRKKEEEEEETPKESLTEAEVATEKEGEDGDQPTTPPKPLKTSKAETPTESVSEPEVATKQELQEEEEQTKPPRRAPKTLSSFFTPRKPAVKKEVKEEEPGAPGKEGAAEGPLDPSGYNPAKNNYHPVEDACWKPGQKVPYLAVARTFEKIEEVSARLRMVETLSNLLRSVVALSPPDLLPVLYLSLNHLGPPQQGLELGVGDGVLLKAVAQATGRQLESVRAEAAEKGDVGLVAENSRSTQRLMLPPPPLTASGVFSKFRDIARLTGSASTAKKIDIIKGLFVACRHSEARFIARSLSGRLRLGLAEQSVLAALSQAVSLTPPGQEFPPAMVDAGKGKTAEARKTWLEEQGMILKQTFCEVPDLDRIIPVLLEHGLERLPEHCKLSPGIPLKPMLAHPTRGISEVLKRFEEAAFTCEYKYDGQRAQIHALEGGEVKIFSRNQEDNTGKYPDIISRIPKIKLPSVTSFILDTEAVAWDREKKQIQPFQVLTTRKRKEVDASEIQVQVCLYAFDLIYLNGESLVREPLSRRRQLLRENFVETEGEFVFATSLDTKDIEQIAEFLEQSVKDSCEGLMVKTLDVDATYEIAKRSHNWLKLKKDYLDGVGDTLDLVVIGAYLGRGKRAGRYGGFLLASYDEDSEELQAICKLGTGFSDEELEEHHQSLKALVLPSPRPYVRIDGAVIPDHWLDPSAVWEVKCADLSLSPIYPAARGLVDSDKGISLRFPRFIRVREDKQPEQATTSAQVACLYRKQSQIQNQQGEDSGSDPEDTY
UniProt P23284: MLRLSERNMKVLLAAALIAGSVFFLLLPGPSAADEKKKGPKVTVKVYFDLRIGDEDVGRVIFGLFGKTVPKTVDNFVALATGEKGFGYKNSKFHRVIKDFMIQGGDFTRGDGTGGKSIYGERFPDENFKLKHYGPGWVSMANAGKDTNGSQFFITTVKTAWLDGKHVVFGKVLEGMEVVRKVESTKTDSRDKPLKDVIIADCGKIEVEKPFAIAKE
UniProt P25686: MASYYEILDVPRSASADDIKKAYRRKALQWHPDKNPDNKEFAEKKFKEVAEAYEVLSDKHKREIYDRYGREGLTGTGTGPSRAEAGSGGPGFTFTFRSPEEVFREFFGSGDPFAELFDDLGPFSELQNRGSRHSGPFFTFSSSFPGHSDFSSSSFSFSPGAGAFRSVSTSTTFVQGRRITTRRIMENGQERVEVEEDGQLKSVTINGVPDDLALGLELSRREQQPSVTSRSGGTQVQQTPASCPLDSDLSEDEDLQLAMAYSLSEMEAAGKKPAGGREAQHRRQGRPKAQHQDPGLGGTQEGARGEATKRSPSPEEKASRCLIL
UniProt P14317: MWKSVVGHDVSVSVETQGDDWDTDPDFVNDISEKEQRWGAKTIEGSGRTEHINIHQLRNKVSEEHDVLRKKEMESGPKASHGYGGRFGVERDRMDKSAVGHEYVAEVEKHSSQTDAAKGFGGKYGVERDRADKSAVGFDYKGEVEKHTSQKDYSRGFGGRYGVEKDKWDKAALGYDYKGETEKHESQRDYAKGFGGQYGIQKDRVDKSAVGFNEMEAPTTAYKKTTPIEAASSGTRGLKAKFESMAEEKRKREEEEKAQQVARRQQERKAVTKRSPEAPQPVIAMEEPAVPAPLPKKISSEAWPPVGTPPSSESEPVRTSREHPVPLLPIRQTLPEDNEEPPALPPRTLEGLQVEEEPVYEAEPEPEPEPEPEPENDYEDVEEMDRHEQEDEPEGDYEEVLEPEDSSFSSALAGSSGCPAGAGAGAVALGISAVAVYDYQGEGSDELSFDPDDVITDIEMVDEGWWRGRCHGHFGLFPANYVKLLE
UniProt P21741: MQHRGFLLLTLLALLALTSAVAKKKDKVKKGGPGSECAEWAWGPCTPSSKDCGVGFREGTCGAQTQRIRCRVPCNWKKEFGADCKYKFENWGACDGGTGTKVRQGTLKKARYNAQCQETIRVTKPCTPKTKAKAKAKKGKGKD
UniProt P19623: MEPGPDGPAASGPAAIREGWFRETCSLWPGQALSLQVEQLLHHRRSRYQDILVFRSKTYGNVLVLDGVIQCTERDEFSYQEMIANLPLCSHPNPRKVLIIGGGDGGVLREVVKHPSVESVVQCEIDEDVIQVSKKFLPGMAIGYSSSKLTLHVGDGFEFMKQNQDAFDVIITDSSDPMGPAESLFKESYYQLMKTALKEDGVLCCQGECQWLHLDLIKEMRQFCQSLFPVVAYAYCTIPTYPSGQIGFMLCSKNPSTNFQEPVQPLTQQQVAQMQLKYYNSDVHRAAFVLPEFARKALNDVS
UniProt P22692: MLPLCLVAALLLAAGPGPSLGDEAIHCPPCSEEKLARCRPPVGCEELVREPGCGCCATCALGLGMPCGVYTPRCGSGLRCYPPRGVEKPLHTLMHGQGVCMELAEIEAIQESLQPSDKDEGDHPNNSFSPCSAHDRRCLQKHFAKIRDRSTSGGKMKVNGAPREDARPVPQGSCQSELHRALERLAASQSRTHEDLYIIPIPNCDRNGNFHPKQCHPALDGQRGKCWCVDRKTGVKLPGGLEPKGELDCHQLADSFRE
UniProt P21291: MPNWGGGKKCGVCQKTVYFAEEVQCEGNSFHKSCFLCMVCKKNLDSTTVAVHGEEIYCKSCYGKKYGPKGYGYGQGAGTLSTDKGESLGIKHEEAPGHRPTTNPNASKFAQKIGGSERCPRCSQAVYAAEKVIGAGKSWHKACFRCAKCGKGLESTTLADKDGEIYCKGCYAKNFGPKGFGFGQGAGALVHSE
UniProt P18669: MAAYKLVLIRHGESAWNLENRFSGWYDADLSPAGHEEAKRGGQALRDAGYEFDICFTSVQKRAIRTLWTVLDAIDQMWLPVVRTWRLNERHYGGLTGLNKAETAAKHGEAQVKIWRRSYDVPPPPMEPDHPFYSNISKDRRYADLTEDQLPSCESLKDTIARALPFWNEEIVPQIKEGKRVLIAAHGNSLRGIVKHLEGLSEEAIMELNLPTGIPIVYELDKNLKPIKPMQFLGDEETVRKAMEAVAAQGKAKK
UniProt P22695: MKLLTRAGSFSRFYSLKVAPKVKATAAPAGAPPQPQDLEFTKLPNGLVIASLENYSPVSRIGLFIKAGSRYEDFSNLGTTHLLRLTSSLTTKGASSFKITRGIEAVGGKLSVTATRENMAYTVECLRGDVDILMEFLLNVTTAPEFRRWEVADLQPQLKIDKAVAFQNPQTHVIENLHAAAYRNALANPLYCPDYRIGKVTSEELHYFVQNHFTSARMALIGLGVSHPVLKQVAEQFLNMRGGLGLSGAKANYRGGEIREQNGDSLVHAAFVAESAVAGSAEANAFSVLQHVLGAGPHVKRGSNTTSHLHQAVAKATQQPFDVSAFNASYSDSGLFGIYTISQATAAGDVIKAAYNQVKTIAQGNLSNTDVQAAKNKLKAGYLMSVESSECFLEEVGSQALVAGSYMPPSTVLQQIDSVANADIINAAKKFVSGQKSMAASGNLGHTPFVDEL
UniProt P22415: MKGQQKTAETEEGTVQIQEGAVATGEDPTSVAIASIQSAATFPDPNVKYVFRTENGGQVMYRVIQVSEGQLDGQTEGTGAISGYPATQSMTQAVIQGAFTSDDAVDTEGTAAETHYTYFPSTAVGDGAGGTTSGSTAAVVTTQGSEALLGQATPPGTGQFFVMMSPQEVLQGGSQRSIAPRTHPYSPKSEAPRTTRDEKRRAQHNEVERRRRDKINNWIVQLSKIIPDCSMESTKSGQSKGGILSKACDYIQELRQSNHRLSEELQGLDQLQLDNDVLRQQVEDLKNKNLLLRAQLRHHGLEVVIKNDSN
UniProt P22314: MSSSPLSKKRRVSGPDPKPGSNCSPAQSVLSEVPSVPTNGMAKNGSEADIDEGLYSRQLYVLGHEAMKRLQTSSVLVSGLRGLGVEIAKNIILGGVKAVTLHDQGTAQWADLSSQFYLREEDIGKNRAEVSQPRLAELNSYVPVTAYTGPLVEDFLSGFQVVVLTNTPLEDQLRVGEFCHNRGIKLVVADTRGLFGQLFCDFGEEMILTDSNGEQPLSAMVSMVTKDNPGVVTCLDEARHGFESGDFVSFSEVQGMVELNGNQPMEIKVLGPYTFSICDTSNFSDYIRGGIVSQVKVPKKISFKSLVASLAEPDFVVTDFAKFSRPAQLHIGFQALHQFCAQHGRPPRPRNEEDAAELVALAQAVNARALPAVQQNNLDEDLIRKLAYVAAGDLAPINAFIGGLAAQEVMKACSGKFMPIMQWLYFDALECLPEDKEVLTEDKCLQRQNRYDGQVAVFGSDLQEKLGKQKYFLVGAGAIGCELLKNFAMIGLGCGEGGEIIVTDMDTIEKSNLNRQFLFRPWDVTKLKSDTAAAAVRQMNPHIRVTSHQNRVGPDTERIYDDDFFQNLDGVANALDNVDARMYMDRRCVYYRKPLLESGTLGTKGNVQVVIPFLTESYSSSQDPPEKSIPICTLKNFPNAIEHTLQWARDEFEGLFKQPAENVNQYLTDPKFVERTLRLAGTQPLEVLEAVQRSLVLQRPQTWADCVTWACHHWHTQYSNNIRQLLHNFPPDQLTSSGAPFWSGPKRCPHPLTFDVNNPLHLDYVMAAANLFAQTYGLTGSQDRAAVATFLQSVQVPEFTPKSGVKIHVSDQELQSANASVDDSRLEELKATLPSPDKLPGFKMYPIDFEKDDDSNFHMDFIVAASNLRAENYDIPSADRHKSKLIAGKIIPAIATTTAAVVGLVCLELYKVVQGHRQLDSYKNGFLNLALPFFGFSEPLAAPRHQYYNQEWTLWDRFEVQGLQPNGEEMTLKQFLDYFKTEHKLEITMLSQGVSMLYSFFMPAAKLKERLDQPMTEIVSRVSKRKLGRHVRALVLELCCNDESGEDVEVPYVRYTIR
UniProt P20339: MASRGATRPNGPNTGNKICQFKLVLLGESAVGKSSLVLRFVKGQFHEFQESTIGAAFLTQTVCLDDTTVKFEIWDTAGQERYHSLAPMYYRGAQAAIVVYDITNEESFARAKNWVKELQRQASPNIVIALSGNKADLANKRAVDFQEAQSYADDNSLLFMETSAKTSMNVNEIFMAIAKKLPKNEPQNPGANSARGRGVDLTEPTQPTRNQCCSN

Compound in this assay: Cc1nc(Nc2ncc(C(=O)Nc3c(C)cccc3Cl)s2)cc(N2CCN(CCO)CC2)n1 [dasatinib]
The assay can be described thus: log2 fold change of tryptic peptide abundance, ligand vs vehicle (limited proteolysis) (log2 ratio); higher = more trypsin-susceptible (destabilized). As to conditions: ligand concentration: 5 uM; sample: K562 cleared lysate.
As for “UniProt P17035 (peptide sequence: DSHLAQHQR, peptide start residue: 451)”, the log2 fold change is 0.59. The value for “UniProt P22033 (peptide sequence: AGQQGLSVAFDLATHR, peptide start residue: 129)” was 0.107. The same measure for “NF1 (peptide sequence: FDEQLPIK, peptide start residue: 17) (UniProt P21359)”: 0.146.

Consider “GM2A (peptide sequence: IESVLSSSGK, peptide start residue: 170) (UniProt P17900)”, for which the log2 fold change was -0.249.

Consider “HOXB4 (peptide sequence: VEIAHALCLSER, peptide start residue: 193) (UniProt P17483)”, for which the log2 fold change came to 0.123.

Regarding “LIG1 (peptide sequence: NQEDNTGKYPDIISR, peptide start residue: 590) (UniProt P18858)”, the log2 fold change was determined as 0.332. The same measure for “PPIB (peptide sequence: DKPLKDVIIADCGK, peptide start residue: 191) (UniProt P23284)”: -0.394.

For “RAB6A (peptide sequence: STGGDFGNPLRK, peptide start residue: 2) (UniProt P20340)”, the log2 fold change was determined as 0.316. The value for “COX6B1 (peptide sequence: FPNQNQTR, peptide start residue: 21) (UniProt P14854)” was 0.15; that for “UniProt P18859 (peptide sequence: FEDPKFEVIEKPQA, peptide start residue: 95)” was 0.11. The same measure for “DNAJB2 (peptide sequence: SVSTSTTFVQGR, peptide start residue: 166) (UniProt P25686)”: 0.205. The same measure for “HCLS1 (peptide sequence: SAVGFDYKGEVEKHTSQK, peptide start residue: 134) (UniProt P14317)”: 0.442. For the target “UniProt P17014 (peptide sequence: DTVFVNHMEEKPYK, peptide start residue: 229)”, the log2 fold change worked out at 0.329.

For “GATA1 (peptide sequence: LHQVNRPLTMR, peptide start residue: 288) (UniProt P15976)”, the log2 fold change was -0.199. The same measure for “MDK (peptide sequence: VTKPCTPK, peptide start residue: 122) (UniProt P21741)”: 0.295.

“SRM (peptide sequence: YYNSDVHR, peptide start residue: 278) (UniProt P19623)”: the log2 fold change is 0.0841.

“UniProt P15391 (peptide sequence: GILYAAPQLR, peptide start residue: 505)”: the log2 fold change was found to be 0.116. With “IGFBP4 (peptide sequence: EDARPVPQGSCQSELHR, peptide start residue: 164) (UniProt P22692)”, the log2 fold change is -0.346. The same measure for “CSRP1 (peptide sequence: SCFLCMVCK, peptide start residue: 33) (UniProt P21291)”: 0.28; for “PFKL (peptide sequence: DTDFEHR, peptide start residue: 728) (UniProt P17858)”: -0.142; for “PDE4A (peptide sequence: SVSEMASHK, peptide start residue: 253) (UniProt P27815)”: -0.21. The same measure for “ZFX (peptide sequence: CTDCDYTTNKK, peptide start residue: 458) (UniProt P17010)”: -0.611; for “PGAM1 (peptide sequence: RSYDVPPPPMEPDHPFYSNISK, peptide start residue: 117) (UniProt P18669)”: 0.2. Turning to “UQCRC2 (peptide sequence: WEVADLQPQLK, peptide start residue: 149) (UniProt P22695)”, the log2 fold change was 0.537. Consider “POLR2C (peptide sequence: PYANQPTVR, peptide start residue: 2) (UniProt P19387)”, for which the log2 fold change was found to be 0.153.

For the target “USF1 (peptide sequence: ACDYIQELR, peptide start residue: 247) (UniProt P22415)”, the log2 fold change came to 0.0901.

As for “UBA1 (peptide sequence: NFPNAIEHTLQWAR, peptide start residue: 636) (UniProt P22314)”, the log2 fold change was found to be 0.219.

“UniProt P15036 (peptide sequence: LADPDEVAR, peptide start residue: 393)”: the log2 fold change was -0.0228. In the case of “RAB5A (peptide sequence: GVDLTEPTQPTR, peptide start residue: 198) (UniProt P20339)”, the log2 fold change was determined as 0.0549.

For the origin of these results see the supplement of paper PMC12819154, “High-throughput peptide-centric local stability assay extends protein–ligand identification to membrane proteins, tissues and bacteria” (Nature Structural & Molecular Biology, 2025).
